# Measured values from the supplement of paper PMC4371806.
# Whole data set: some 1,600 compounds, median “plate-normalized OD600 growth (mean of duplicates)” near 0.31, cut for the lowest 2% near 0.23. The list shows a part of the results.
# System: Escherichia coli BW25113
# Assay: plate-normalized OD600 growth (mean of duplicates) (OD600 (normalized)); higher = more growth (less inhibition)
# Settings: 10 µM
# Experimental: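 E. coli BW25113 in LB (100 µl, 96-well, no shaking) was exposed to 10 µM of each compound (here the ChemBridge subset of a ~30,000-member library) and grown at 37°C for 24 h or 15°C for 48 h, in duplicate. Growth was read as OD600 and the duplicate ODs were normalized across screening plates to correct plate-to-plate variation.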
Compound,"plate-normalized OD600 growth (temperature: 15°C, 48 h)","plate-normalized OD600 growth (temperature: 37°C, 24 h)"
COc1ccc2nccnc2c1[N+](=O)[O-],0.25,0.617
C1CCN(CCCNC2C3CC4CC(C3)CC2C4)C1 (stereo not drawn),0.241,0.643
O=C1c2ccccc2C(=O)N1c1nccs1,0.239,0.622
COc1ccc2nc3c(nc2c1)C(=O)c1ccccc1-3,0.234,0.611
COc1ccc(CNc2ccccc2)cc1C,0.246,0.615
NNC(=O)Nc1ccc(Cc2ccc(NC(=O)NN)cc2)cc1,0.266,0.638
Cc1cccc(CSc2nc(C)cc(=O)[nH]2)c1,0.251,0.617
O=C(O)CN(CC(=O)O)c1ccccc1,0.255,0.651
O=C(O)c1cccc(NC(=O)c2ccc([N+](=O)[O-])cc2)c1,0.261,0.617
CC1(C)CC(=O)C2=C(C1)Nc1ccccc1NC2c1ccccc1F (stereo not drawn),0.25,0.618
CCCN1CCC(NCCc2ccccc2OC)CC1,0.252,0.619
CC(=O)N1CCC(NC2CCCCCC2)CC1,0.269,0.62
COc1cc2c(cc1OC)CN(Cc1ccccn1)CC2,0.28,0.644
Cc1ccc(NC(=O)c2ccc(Br)cc2)c([N+](=O)[O-])c1,0.25,0.593
O=C(Cn1cnc2ccccc21)c1ccc(Br)cc1,0.238,0.623
NC(=O)N1CCN(C(=O)c2ccco2)CC1,0.255,0.633
NC(N)=Nc1nc2ccccc2c(=O)[nH]1,0.254,0.622
Cc1ccsc1CN1CCN(c2ccc([N+](=O)[O-])cc2)CC1,0.256,0.634
COc1ccccc1/C=C/CN1CCN(CCOCCO)CC1,0.267,0.661
CC(C)c1c(C#N)c(N)nc(SCC(=O)c2ccc(Cl)c(Cl)c2)c1C#N,0.256,0.63
CC(=O)Nc1ccc(S(=O)(=O)N2CCN(C)CC2)cc1,0.258,0.646
C/C(=C\c1ccccc1)CN1CCN(C)CC1,0.251,0.652
COc1ccc(N2C(=O)CC(N3CCN(c4ccccn4)CC3)C2=O)cc1 (stereo not drawn),0.24,0.651
CC1CCN(C2CC(=O)N(c3ccccc3)C2=O)CC1 (stereo not drawn),0.23,0.614
N#CSCCCOc1ccccc1Br,0.242,0.595
Cc1c(N)cc(C(=O)O)cc1[N+](=O)[O-],0.265,0.66
COc1cc(CNCc2ccco2)cc(OC)c1,0.255,0.624

# Part of the list above in order of length of the SMILES, descending:
Compound,"plate-normalized OD600 growth (temperature: 15°C, 48 h)","plate-normalized OD600 growth (temperature: 37°C, 24 h)"
CC(C)c1c(C#N)c(N)nc(SCC(=O)c2ccc(Cl)c(Cl)c2)c1C#N,0.256,0.63
COc1ccc(N2C(=O)CC(N3CCN(c4ccccn4)CC3)C2=O)cc1 (stereo not drawn),0.24,0.651
O=C(O)c1cccc(NC(=O)c2ccc([N+](=O)[O-])cc2)c1,0.261,0.617
Cc1ccc(NC(=O)c2ccc(Br)cc2)c([N+](=O)[O-])c1,0.25,0.593
CC1(C)CC(=O)C2=C(C1)Nc1ccccc1NC2c1ccccc1F (stereo not drawn),0.25,0.618
NNC(=O)Nc1ccc(Cc2ccc(NC(=O)NN)cc2)cc1,0.266,0.638
CC1CCN(C2CC(=O)N(c3ccccc3)C2=O)CC1 (stereo not drawn),0.23,0.614
Cc1c(N)cc(C(=O)O)cc1[N+](=O)[O-],0.265,0.66
C1CCN(CCCNC2C3CC4CC(C3)CC2C4)C1 (stereo not drawn),0.241,0.643
NC(=O)N1CCN(C(=O)c2ccco2)CC1,0.255,0.633
CC(=O)N1CCC(NC2CCCCCC2)CC1,0.269,0.62
O=C(O)CN(CC(=O)O)c1ccccc1,0.255,0.651
COc1ccc(CNc2ccccc2)cc1C,0.246,0.615
N#CSCCCOc1ccccc1Br,0.242,0.595

# Carrying on.

Compound,"plate-normalized OD600 growth (temperature: 15°C, 48 h)","plate-normalized OD600 growth (temperature: 37°C, 24 h)"
CC(=O)NC(C)(CC(=O)c1ccccc1)c1ccccc1 (stereo not drawn),0.227,0.639
CC(C)=CCC/C(C)=C/CN1CCCN(C)CC1,0.234,0.63
CC(=O)N1CCCC1(C(=O)O)c1ccccc1 (stereo not drawn),0.259,0.629
O=c1c2c3c(sc2nc2n1CCCCC2)CCCCC3,0.265,0.618
COc1ccc2c(c1OC)C(=O)N(c1ccc(I)cc1)C2,0.266,0.632
COc1ccc(NC(=O)CSc2nnc(N)s2)cc1,0.258,0.607
COc1ccc(-c2csc(C)n2)cc1[N+](=O)[O-],0.231,0.615
CCc1cc2c(N3CCCCCC3)ncnc2s1,0.247,0.637
CCC(=O)N1CCN(c2cc(N3CCCC3)c(F)cc2[N+](=O)[O-])CC1,0.268,0.65
Oc1ccccc1CN1CCOCC1,0.247,0.662
CCOc1ccc(-c2ncnn2-c2ccc([N+](=O)[O-])cc2)cc1,0.222,0.625
CCN(CC)C(=O)C1CCCN(Cc2sccc2C)C1 (stereo not drawn),0.257,0.636
Cn1c(NCc2ccccc2)cc(=O)n(C)c1=O,0.258,0.619
CC1(C)CC1C(=O)Nc1ccc([N+](=O)[O-])cc1Br (stereo not drawn),0.29,0.615
CN1C2=NCCCN2c2ccccc21,0.238,0.612
Fc1ccc(CN2CCN(c3ccccn3)CC2)cc1Br,0.237,0.585
CCN(c1ccccc1)S(=O)(=O)c1ccc(NC(C)=O)cc1,0.265,0.628
O=S(=O)(Cc1ccccc1)NCc1cccnc1,0.24,0.619
COc1ccc(-n2c(C)c([N+](=O)[O-])c3ccc(O)c(CN4CCCCC4)c32)cc1,0.238,0.647
COc1ccccc1/C=C/CN1CCN(c2ccccn2)CC1,0.275,0.655
O=C(Nc1cccc([N+](=O)[O-])c1)c1cc(S(=O)(=O)Nc2ccccc2)ccc1Cl,0.256,0.621
O=C(NC1CCCCCC1)c1ccc([N+](=O)[O-])cc1,0.212,0.629
c1cc(CNc2ccc3c(c2)CCC3)ccn1,0.252,0.642
O=C(Nc1ccc(Oc2ccc(NC(=O)c3cccnc3)cc2)cc1)c1cccnc1,0.27,0.629
CC(=O)NC1CCCc2c1[nH]c1ccc(C)cc21 (stereo not drawn),0.238,0.622
CC(=O)Nc1ccc(-c2nc3ccc(NC(C)=O)cc3[nH]2)cc1,0.243,0.616
CN1CCN(c2ncnc3sc4c(c23)CCCC4)CC1,0.253,0.635
